Laboratory results published in the supplement of paper PMC5949888.
Most values lie at the floor of the assay. Slopes are relative: functional sequences can read slightly below zero.

The substances below were run on Saccharomyces cerevisiae PS128 hsf1 delta, HSF1(1-493) fusion (assay: growth estimate (transactivation domain function in HSF1 fusion, heat-shock survival) (a.u. (slope of normalised read count over time)); higher = stronger growth at 37°C, i.e. more transactivation activity). Details: library: random library.

| Substance | growth estimate |
| --- | --- |
| VTNTSTEGNRHEHVVQYLIA | -0.25 |
| NAVLLREKCQPVTPSSKGD | < -0.25 |
| LHRFRLELGGNSGNSLPMPA | < -0.25 |
| RIY | < -0.25 |
| VIACCRQHAIHF | < -0.25 |
| YTGFARYRTRAEQTVGRYAS | < -0.25 |
| ARNGRRVTGLCVDACGDLRF | < -0.25 |
| SDSSWGLYTSIPLPSSRARC | < -0.25 |
| ETAMREEEWLKRPRPR | < -0.25 |
| EKRSSLVSLMGDPQPLASRP | < -0.25 |
| RISVRCATHIGFIFRDIRGH | < -0.25 |
| GGRDADVNTTRGRDGLGMR | < -0.25 |
| VRQQYTEWKGRCPEVLLRSE | < -0.25 |
| GKAWQRWKATGDIWPTSACL | < -0.25 |
| LLAQTGRRVSAGEGFSLGEI | < -0.25 |
| LTRSRACFDCTWVRLASRSL | < -0.25 |
| RPRVRVVWGNNLDMGGAC | < -0.25 |
| DGR | < -0.25 |
| VCSRP | < -0.25 |
| GCKGEILPPVTSAYRSSLES | < -0.25 |
| LLEAILAQGIWKST | < -0.25 |
| AVGGQ | < -0.25 |
| RFG | < -0.25 |
| TTRLMGRGVIDGPDGCLQQL | < -0.25 |
| LSQESLGISSLRHLGHLPPS | < -0.25 |

A stretch from the list above, as a working copy:

| Substance | growth estimate |
| --- | --- |
| VRQQYTEWKGRCPEVLLRSE | < -0.25 |
| GKAWQRWKATGDIWPTSACL | < -0.25 |

Next part.

| Substance | growth estimate |
| --- | --- |
| PDGFDSTSCTIESQDKLVRL | < -0.25 |
| NAGYPGKFGQCSVNISVK | < -0.25 |
| QYRVSTGTQQLSAF | < -0.25 |
| GRNLRPLVSIGYASTNTQSA | < -0.25 |
| RSGPSLCLDSDTLLIKRAAM | < -0.25 |
| LNMKV | < -0.25 |
| SNLGTDG | < -0.25 |
| PVMDSCVGHICGPFSRRLAF | < -0.25 |
| RNGICFLLPR | < -0.25 |
| CSERTCHITLCRRQHPRNAR | < -0.25 |
| GGTMG | < -0.25 |
| SRGHCLTVSKWVIIQQHCVD | < -0.25 |
| ALVDGRVE | -0.2 |
| EAMKATVAR | < -0.25 |
| TRERLSLFPAH | < -0.25 |
| GRDSSDHRPQAPDVPSL | < -0.25 |
| GYRITYQQEYDKALNRDCNL | < -0.25 |
| KRRHFKNAPI | < -0.25 |
| SIDGYMGPWRDKDWFTP | < -0.25 |
| CSHTFRVGPPYRGRGIDKCL | < -0.25 |
| MGIPITRNLLGSVVRCAYRG | < -0.25 |
| SCGS | < -0.25 |
| PTATRDKPT | < -0.25 |
| ASFPRRPLKNELLLI | < -0.25 |
| GWSARCVNLTSVFQCARGPR | -0.246 |

Taken from above:
growth estimate, LNMKV reads < -0.25
growth estimate, SRGHCLTVSKWVIIQQHCVD reads < -0.25

Further results follow.

| Substance | growth estimate |
| --- | --- |
| RVWWKGASRWIEIRPGQGCP | < -0.25 |
| RGQTRQSSRLSCWVSAQNAR | < -0.25 |
| DAFVREPSVAQ | < -0.25 |
| GSHSGKEALSFLSC | < -0.25 |
| KKAERVLHLHRQLRRGIVLV | < -0.25 |
| AVFRIQAEGGAGKIRDSLIV | < -0.25 |
| SSINPTGDYL | < -0.25 |
| SSGSLGRQRCLQTAKRWYIA | < -0.25 |
| HASEGLEDEVEDGCRHHNRL | -0.16 |
| QPRLLHT | < -0.25 |
| GLSMDIGLIRI | < -0.25 |
| WHPLYDRQKEGPVI | -0.189 |
| KVGLTRICSEAPDLWPLPRY | < -0.25 |
| HNI | < -0.25 |
| ETNGLDGTQI | < -0.25 |
| CFKCTLAE | < -0.25 |
| CKVNDSSANSSLIAISVVVE | < -0.25 |
| LIVIEYVTIASLLGSRDIGS | < -0.25 |
| GDTKKIDSRLWPATVLIRTE | < -0.25 |
| SALSRSAAYTSSLSC | < -0.25 |
| GLQSTRYSLFSRCNALSRSA | < -0.25 |
| HCKRRRPQEIVTLL | < -0.25 |
| LIRWTGYGATLRR | < -0.25 |
| LVVRVLRRDPLFRMVTPFTE | < -0.25 |
| ALPMIPNTKFVVERG | < -0.25 |

| Substance | growth estimate |
| --- | --- |
| SYRLLIALLNTAID | < -0.25 |
| YDL | < -0.25 |
| KYNWGSVTILRGKLPKPAHG | < -0.25 |
| CCSRHLGVSEQGRVLGPVPR | < -0.25 |
| LPSHRTNLD | < -0.25 |
| CNLVFVIINAAQSDAGTQFV | < -0.25 |
| KRVTFLDRLLLIRIFGR | < -0.25 |
| SRLWCCSQRFTADETKVPCS | < -0.25 |
| TYAHEAALVHVIWCPVV | < -0.25 |
| FQTKPDHFDDSPMSGWAGL | < -0.25 |
| VVSLCGKRKSSTSRCRQHEQ | < -0.25 |
| LTRLCYPRT | < -0.25 |
| NLRHWQAERGICRGLCLTVC | < -0.25 |
| MIFNPARETRGTLGCD | < -0.25 |
| ILIGPCL | < -0.25 |
| WFDFMVSSRWTPRGIP | < -0.25 |
| GVQPLEGKNRYSRWVRLERR | < -0.25 |
| GLPIQKGSGLY | < -0.25 |
| QSSSIAHPID | < -0.25 |
| LGIAYNHAVPPPIDVGGRTR | < -0.25 |
| NGRIPETVIPGPCK | < -0.25 |
| PGVLSDIKA | < -0.25 |
| FGRDPCLTGVGIGSVAEGRP | < -0.25 |
